Paper PMC6280245
Results are given in words; binding and its absence hold for the method and conditions named. In cells and extracts the contact can be indirect. Here binding means that the protein was enriched with, or labelled near, the bait; the list need not be complete.

T1: mouse Nucleoredoxin Cys208Ser (mouse) (UniProt P97346)
T1 sequence: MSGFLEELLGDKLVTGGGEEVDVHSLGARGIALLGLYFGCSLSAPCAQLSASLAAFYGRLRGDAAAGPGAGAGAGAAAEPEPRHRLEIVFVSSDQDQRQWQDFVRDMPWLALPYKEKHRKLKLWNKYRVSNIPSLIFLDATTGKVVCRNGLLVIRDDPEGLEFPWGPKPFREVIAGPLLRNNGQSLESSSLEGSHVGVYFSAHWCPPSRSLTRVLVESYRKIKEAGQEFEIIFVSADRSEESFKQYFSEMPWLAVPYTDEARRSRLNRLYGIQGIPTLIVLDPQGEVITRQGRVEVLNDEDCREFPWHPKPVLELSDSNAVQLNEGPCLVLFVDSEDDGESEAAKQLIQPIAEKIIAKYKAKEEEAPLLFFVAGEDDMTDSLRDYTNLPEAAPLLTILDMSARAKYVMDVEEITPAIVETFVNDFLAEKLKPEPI


Target: T1, mouse Nucleoredoxin Cys208Ser (mouse)
Experiment: affinity purification with mass spectrometry; intermediate trapping: mNrx Cys208Ser coupled to CNBr-activated sepharose and reduced with 10 mM DTT; clarified SH-SY5Y lysate (NP40 lysis buffer) 2 h at 4°C; washed with 100 mM Tris, 300 mM NaCl, pH 8 and TE buffer; trapped proteins (mixed disulfide) eluted with 10 mM DTT and 10 mM TCEP; only the target purified

Binder | binding
Isoleucine-tRNA ligase, mitochondrial (protein, UniProt Q9NSE4 49-1012) SNHQPNSNSGRYRDTVLLPQTSFPMKLLGRQQPDTELEIQQKCGFSELYSWQRERKVKTEFCLHDGPPYANGDPHVGHALNKILKDIANRFHMMNGSKIHFVPGWDCHGLPIEIKVLSELGREAQNLSAMEIRKKARSFAKAAIEKQKSAFIRWGIMADWNNCYYTFDGKYEAKQLRTFYQMYDKGLVYRSYKPVFWSPSSRTALAEAELEYNPEHVSRSIYVKFPLLKPSPKLASLIDGSSPVSILVWTTQPWTIPANEAVCYMPESKYAVVKCSKSGDLYVLAADKVASVASTLETTFETISTLSGVDLENGTCSHPLIPDKASPLLPANHVTMAKGTGLVHTAPAHGMEDYGVASQHNLPMDCLVDEDGVFTDVAGPELQNKAVLEEGTDVVIKMLQTAKNLLKEEKLVHSYPYDWRTKKPVVIRASKQWFINITDIKTAAKELLKKVKFIPGSALNGMVEMMDRRPYWCISRQRVWGVPIPVFHHKTKDEYLINSQTTEHIVKLVEQHGSDIWWTLPPEQLLPKEVLSEVGGPDALEYVPGQDILDIWFDSGTSWSYVLPGPDQRADLYLEGKDQLGGWFQSSLLTSVAARKRAPYKTVIVHGFTLGEKGEKMSKSLGNVIHPDVVVNGGQDQSKEPPYGADVLRWWVADSNVFTEVAIGPSVLNAARDDISKLRNTLRFLLGNVADFNPETDSIPVNDMYVIDQYMLHLLQDLANKITELYKQYDFGKVVRLLRTFYTRELSNFYFSIIKDRLYCEKENDPKRRSCQTALVEILDVIVRSFAPILPHLAEEVFQHIPYIKEPKSVFRTGWISTSSIWKKPGLEEAVESACAMRDSFLGSIPGKNAAEYKVITVIEPGLLFEIIEMLQSEETSSTSQLNELMMASESTLLAQEPREMTADVIELKGKFLINLEGGDIREESSYKVIVMPTTKEKCPRCWKYTAESSDTLCPRCAEVVSGK | binds
Arginine-tRNA ligase, cytoplasmic (protein, UniProt P54136 1-660) MDVLVSECSARLLQQEEEIKSLTAEIDRLKNCGCLGASPNLEQLQEENLKLKYRLNILRKSLQAERNKPTKNMINIISRLQEVFGHAIKAAYPDLENPPLLVTPSQQAKFGDYQCNSAMGISQMLKTKEQKVNPREIAENITKHLPDNECIEKVEIAGPGFINVHLRKDFVSEQLTSLLVNGVQLPALGENKKVIVDFSSPNIAKEMHVGHLRSTIIGESISRLFEFAGYDVLRLNHVGDWGTQFGMLIAHLQDKFPDYLTVSPPIGDLQVFYKESKKRFDTEEEFKKRAYQCVVLLQGKNPDITKAWKLICDVSRQELNKIYDALDVSLIERGESFYQDRMNDIVKEFEDRGFVQVDDGRKIVFVPGCSIPLTIVKSDGGYTYDTSDLAAIKQRLFEEKADMIIYVVDNGQSVHFQTIFAAAQMIGWYDPKVTRVFHAGFGVVLGEDKKKFKTRSGETVRLMDLLGEGLKRSMDKLKEKERDKVLTAEELNAAQTSVAYGCIKYADLSHNRLNDYIFSFDKMLDDRGNTAAYLLYAFTRIRSIARLANIDEEMLQKAARETKILLDHEKEWKLGRCILRFPEILQKILDDLFLHTLCDYIYELATAFTEFYDSCYCVEKDRQTGKILKVNMWRMLLCEAVAAVMAKGFDILGIKPVQRM | binds
Alpha-aminoadipic semialdehyde dehydrogenase (protein, UniProt P49419 27-539) AFMSTLLINQPQYAWLKELGLREENEGVYNGSWGGRGEVITTYCPANNEPIARVRQASVADYEETVKKAREAWKIWADIPAPKRGEIVRQIGDALREKIQVLGSLVSLEMGKILVEGVGEVQEYVDICDYAVGLSRMIGGPILPSERSGHALIEQWNPVGLVGIITAFNFPVAVYGWNNAIAMICGNVCLWKGAPTTSLISVAVTKIIAKVLEDNKLPGAICSLTCGGADIGTAMAKDERVNLLSFTGSTQVGKQVGLMVQERFGRSLLELGGNNAIIAFEDADLSLVVPSALFAAVGTAGQRCTTARRLFIHESIHDEVVNRLKKAYAQIRVGNPWDPNVLYGPLHTKQAVSMFLGAVEEAKKEGGTVVYGGKVMDRPGNYVEPTIVTGLGHDASIAHTETFAPILYVFKFKNEEEVFAWNNEVKQGLSSSIFTKDLGRIFRWLGPKGSDCGIVNVNIPTSGAEIGGAFGGEKHTGGGRESGSDAWKQYMRRSTCTINYSKDLPLAQGIKFQ | binds

Next, values leading:

binding | Binder
binds | Ran-binding protein 3 (protein, UniProt Q9H6Z4 1-567) MADLANEEKPAIAPPVFVFQKDKGQKSPAEQKNLSDSGEEPRGEAEAPHHGTGHPESAGEHALEPPAPAGASASTPPPPAPEAQLPPFPRELAGRSAGGSSPEGGEDSDREDGNYCPPVKRERTSSLTQFPPSQSEERSSGFRLKPPTLIHGQAPSAGLPSQKPKEQQRSVLRPAVLQAPQPKALSQTVPSSGTNGVSLPADCTGAVPAASPDTAAWRSPSEAADEVCALEEKEPQKNESSNASEEEACEKKDPATQQAFVFGQNLRDRVKLINESVDEADMENAGHPSADTPTATNYFLQYISSSLENSTNSADASSNKFVFGQNMSERVLSPPKLNEVSSDANRENAAAESGSESSSQEATPEKESLAESAAAYTKATARKCLLEKVEVITGEEAESNVLQMQCKLFVFDKTSQSWVERGRGLLRLNDMASTDDGTLQSRLVMRTQGSLRLILNTKLWAQMQIDKASEKSIRITAMDTEDQGVKVFLISASSKDTGQLYAALHHRILALRSRVEQEQEAKMPAPEPGAAPSNEEDDSDDDDVLAPSGATAAGAGDEGDGQTTGST
binds | Xaa-Pro dipeptidase (protein, UniProt P12955 1-493) MAAATGPSFWLGNETLKVPLALFALNRQRLCERLRKNPAVQAGSIVVLQGGEETQRYCTDTGVLFRQESFFHWAFGVTEPGCYGVIDVDTGKSTLFVPRLPASHATWMGKIHSKEHFKEKYAVDDVQYVDEIASVLTSQKPSVLLTLRGVNTDSGSVCREASFDGISKFEVNNTILHPEIVECRVFKTDMELEVLRYTNKISSEAHREVMKAVKVGMKEYELESLFEHYCYSRGGMRHSSYTCICGSGENSAVLHYGHAGAPNDRTIQNGDMCLFDMGGEYYCFASDITCSFPANGKFTADQKAVYEAVLRSSRAVMGAMKPGVWWPDMHRLADRIHLEELAHMGILSGSVDAMVQAHLGAVFMPHGLGHFLGIDVHDVGGYPEGVERIDEPGLRSLRTARHLQPGMVLTVEPGIYFIDHLLDEALADPARASFLNREVLQRFRGFGGVRIEEDVVVTDSGIELLTCVPRTVEEIEACMAGCDKAFTPFSGPK
binds | Serine/threonine-protein phosphatase 5 (protein, UniProt P53041 1-499) MAMAEGERTECAEPPRDEPPADGALKRAEELKTQANDYFKAKDYENAIKFYSQAIELNPSNAIYYGNRSLAYLRTECYGYALGDATRAIELDKKYIKGYYRRAASNMALGKFRAALRDYETVVKVKPHDKDAKMKYQECNKIVKQKAFERAIAGDEHKRSVVDSLDIESMTIEDEYSGPKLEDGKVTISFMKELMQWYKDQKKLHRKCAYQILVQVKEVLSKLSTLVETTLKETEKITVCGDTHGQFYDLLNIFELNGLPSETNPYIFNGDFVDRGSFSVEVILTLFGFKLLYPDHFHLLRGNHETDNMNQIYGFEGEVKAKYTAQMYELFSEVFEWLPLAQCINGKVLIMHGGLFSEDGVTLDDIRKIERNRQPPDSGPMCDLLWSDPQPQNGRSISKRGVSCQFGPDVTKAFLEENNLDYIIRSHEVKAEGYEVAHGGRCVTVFSAPNYCDQMGNKASYIHLQGSDLRPQFHQFTAVPHPNVKPMAYANTLLQLGMM
binds | Peroxiredoxin-1 (protein, UniProt Q06830 1-199) MSSGNAKIGHPAPNFKATAVMPDGQFKDISLSDYKGKYVVFFFYPLDFTFVCPTEIIAFSDRAEEFKKLNCQVIGASVDSHFCHLAWVNTPKKQGGLGPMNIPLVSDPKRTIAQDYGVLKADEGISFRGLFIIDDKGILRQITVNDLPVGRSVDETLRLVQAFQFTDKHGEVCPAGWKPGSDTIKPDVQKSKEYFSKQK
